{"source": "PubChem BioAssay AID216", "about": "(DTP/NCI, 2004)", "system": "BDF1 mice, P288 leukemia ip, survival T/C", "assay": "NCI In Vivo Anticancer Drug Screen. Data for tumor model P288 Lymphocytic Leukemia (intraperitoneal) in B6D2F1 (BDF1) mice", "settings": "T/C endpoint: survival time, mean or median, higher T/C = longer survival", "protocol": "The antitumor activity of compounds was measured in mice bearing transplantable tumors. Survival or tumor size were measured and the results are expressed as the measurement made in the treated group (T) divided by the measurement made in the vehicle treated control group (C). The tumor model used in this assay is P288 Lymphocytic Leukemia (intraperitoneal) in B6D2F1 (BDF1) mice", "key": {"[1]": {"settings": "dose: 0.5 mg/kg/injection, schedule: Q01DX010 (ip), vehicle: saline"}}, "note": "The list shows only some results of the screen, not a fair sample: it gathers tests that were run many times, whatever their T/C, doses with no T/C, and many T/C values between a quarter and a half above the control. Further doses and runs are listed elsewhere. T/C is the treated group as % of the vehicle group. Some doses have a count of surviving animals in place of a T/C: the source holds a T/C of zero for them, seemingly a mark for toxic or unscored doses. Some survivor counts are full or nearly so, which does not show that the dose was tolerated: survival well below the control is almost never listed, so the zero probably covers shortened survival too. Survivors were counted at the toxicity check, usually on the fifth day, unless a day is given; later deaths do not show. Schedule codes are those of the source, taken here to give the interval after Q, in days (D) or hours (H), and the number of doses after X. Some schedules carry Z or #; the key to these is not given. For survival time, this PubChem deposit counts one and a half times the control or more as active, and values a quarter to a half above the control carry no call in these data; other NCI protocols may use other cut-offs. Some T/C values are followed by the survivors on the day toxicity was checked, most often the fifth; where none is given, no animal had died by that day. Some doses were run more than once; the results are listed from low to high.", "data": [{"smiles": "Nc1nc(=S)c2ncn(C3OC(CO)C(O)C3O)c2[nH]1", "note": "(configuration not stated)", "values": [{"measurement": "survivor count", "setting": "dose: 0.04 mg/kg/injection, schedule: Q01DX Z (ip), vehicle: carboxymethylcellulose (CMC)", "result": "6 of 6"}, {"measurement": "survivor count", "setting": "dose: 0.08 mg/kg/injection, schedule: Q01DX Z (ip), vehicle: carboxymethylcellulose (CMC)", "result": "6 of 6"}, {"measurement": "survivor count", "setting": "dose: 0.16 mg/kg/injection, schedule: Q01DX Z (ip), vehicle: carboxymethylcellulose (CMC)", "result": "6 of 6"}, {"measurement": "survivor count", "setting": "dose: 0.32 mg/kg/injection, schedule: Q01DX Z (ip), vehicle: carboxymethylcellulose (CMC)", "result": "6 of 6"}, {"measurement": "survivor count", "setting": "dose: 0.63 mg/kg/injection, schedule: Q01DX Z (ip), vehicle: carboxymethylcellulose (CMC)", "result": "6 of 6"}, {"measurement": "survivor count", "setting": "dose: 1.25 mg/kg/injection, schedule: Q01DX Z (ip), vehicle: carboxymethylcellulose (CMC)", "result": "6 of 6"}, {"measurement": "T/C", "setting": "dose: 2.0 mg/kg/injection, schedule: Q01DX010 (ip), vehicle: saline", "result": "137 % of control"}, {"measurement": "survivor count", "setting": "dose: 2.5 mg/kg/injection, schedule: Q01DX Z (ip), vehicle: carboxymethylcellulose (CMC)", "result": "6 of 6"}, {"measurement": "survivor count", "setting": "dose: 5.0 mg/kg/injection, schedule: Q01DX Z (ip), vehicle: carboxymethylcellulose (CMC)", "result": "6 of 6"}, {"measurement": "survivor count", "setting": "dose: 10.0 mg/kg/injection, schedule: Q01DX Z (ip), vehicle: carboxymethylcellulose (CMC)", "result": "6 of 6"}]}, {"smiles": "[I][Hg][CH2]C1COC([CH2][Hg][I])CO1", "note": "(configuration not stated)", "values": [{"measurement": "survivor count", "setting": "dose: 7.5 mg/kg/injection, schedule: Q01DX Z (ip), vehicle: carboxymethylcellulose (CMC)", "result": "6 of 6"}]}, {"smiles": "CC[C@]1(O)C[C@H]2CN(CCc3c([nH]c4ccccc34)[C@@](C(=O)OC)(c3cc4c(cc3OC)N(C=O)[C@H]3[C@@](O)(C(=O)OC)[C@H](OC(C)=O)[C@]5(CC)C=CCN6CC[C@]43[C@@H]65)C2)C1", "values": [{"measurement": "T/C", "setting": "dose: 0.03 mg/kg/injection, schedule: Q01DX010 (ip), vehicle: saline", "result": "110, 119, 139, 181 % of control [5 of 6 alive]"}, {"measurement": "T/C", "setting": "dose: 0.06 mg/kg/injection, schedule: Q01DX010 (ip), vehicle: saline", "result": "125, 131, 140, 166 % of control"}, {"measurement": "T/C", "setting": "dose: 0.12 mg/kg/injection, schedule: Q01DX010 (ip), vehicle: saline", "result": "154, 160, 166, 178 % of control"}, {"measurement": "T/C", "setting": "dose: 0.12 mg/kg/injection, schedule: Q01DX Z (ip), vehicle: water", "result": "125 % of control"}, {"measurement": "T/C", "setting": "dose: 0.25 mg/kg/injection, schedule: Q01DX010 (ip), vehicle: saline", "result": "113, 116, 144, 177 % of control"}, {"measurement": "T/C", "setting": "dose: 0.25 mg/kg/injection, schedule: Q01DX Z (ip), vehicle: water", "result": "125 % of control"}, {"measurement": "T/C", "setting": "[1]", "result": "91, 93 [4 of 6 alive], 111 % of control [5 of 6 alive]"}, {"measurement": "survivor count", "setting": "[1]", "result": "4 of 6"}, {"measurement": "survivor count", "setting": "dose: 1.0 mg/kg/injection, schedule: Q01DX Z (ip), vehicle: water", "result": "2 of 6"}]}, {"smiles": "CN(C)c1ccc(/C=C/c2ccnc3ccccc23)cc1", "values": [{"measurement": "T/C", "setting": "dose: 0.4 mg/kg/injection, schedule: Q01DX Z (ip), vehicle: water", "result": "126 % of control"}, {"measurement": "survivor count", "setting": "dose: 5.0 mg/kg/injection, schedule: Q01DX010 (ip), vehicle: saline", "result": "6 of 6"}, {"measurement": "survivor count", "setting": "dose: 12.5 mg/kg/injection, schedule: Q01DX Z (ip), vehicle: water", "result": "6 of 6"}, {"measurement": "survivor count", "setting": "dose: 20.0 mg/kg/injection, schedule: Q01DX010 (ip), vehicle: saline", "result": "6 of 6"}, {"measurement": "survivor count", "setting": "dose: 25.0 mg/kg/injection, schedule: Q01DX Z (ip), vehicle: water", "result": "6 of 6"}, {"measurement": "survivor count", "setting": "dose: 50.0 mg/kg/injection, schedule: Q01DX Z (ip), vehicle: water", "result": "6 of 6"}, {"measurement": "survivor count", "setting": "dose: 100.0 mg/kg/injection, schedule: Q01DX Z (ip), vehicle: water", "result": "4 of 6"}]}]}
